Experimental findings from patent US20100105569A1 (AbbVie / Abbott, published 2010) are described below.

The chains behind the UniProt entries cited, without tags or fusion partners. Residues count along the entry.
UniProt P01375, residues 77-233: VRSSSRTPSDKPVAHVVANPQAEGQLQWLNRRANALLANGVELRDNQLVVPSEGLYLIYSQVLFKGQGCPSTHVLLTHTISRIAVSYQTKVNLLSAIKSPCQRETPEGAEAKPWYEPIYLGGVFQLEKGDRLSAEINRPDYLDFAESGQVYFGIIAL

No constants are given. Whether binding was seen depends on the method and setting. Binding seen in cells or lysates may run through a third protein. Some entries that bind do so weakly or less than the wild type.

The target of this test is human TNFα (biotinylated) (human) (UniProt P01375). The experiment in a line: pull-down of 35S-labelled mRNA-scFv and free scFv by biotinylated antigen on streptavidin magnetic beads (FIG. 4).

B1: MAK195 scFv (scFv)
scFv: MEVQLKESGPGLVAPSQSLSITCTVSGFSLTDYGVNWVRQPPGKGLEWLGMIWGDGSTDYDSTLKSRLSISKDNSKSQIFLKMNSLQTDDTARYYCAREWHHGPVAYWGQGTLVTVSAGGGGSGGGGSGGGGSDIVMTQSHKFMSTTVGDRVSITCKASQAVSSAVAWYQQKPGQSPKLLIYWASTRHTGVPDRFTGSGSVTDFTLTIHNLQAEDLALYYCQQHYSTPFTFGSGTKLEIKRTVAAPSVFIFPPSDYKDDDDKASAI
For B1, the binding entry is on record as “binds”.
